# Assay results from PubChem BioAssay AID2685 (National Center for Advancing Translational Sciences (NCATS), 2010).
# The list shows a part of the results. Further columns of the screen follow, without active or inactive calls. Most of these compounds were active or inconclusive in the main read-out, so they are no random draw. Words in brackets tell the shape of the fitted curve; partial curves, single points and poor fits give uncertain potencies.
# Assay: qHTS Assay for Lipid Storage Modulators in Drosophila S3 Cells;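 as to cell number change: cells counted by Cell Tracker Red CMTPX staining in the red channel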
# Conditions: BODIPY lipid droplet fluorescence, 18-24 h; for cell number change: measured here: cell count max response, cells fed with added oleic acid
# How it was run: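 Drosophila S3 cells loaded with oleic acid (400 uM, as added) and compounds at several concentrations; lipid droplets imaged by 488-nm laser-scanning cytometry, 500–530 nm intensity and object ratio to cell channel. Percent activity normalized to 20 uM Triacsin C.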
# [1] = measured here: cell number channel AC50, cells fed with added oleic acid
# [2] = measured here: lipid fluorescence (Fed channel) AC50, cells fed with added oleic acid
Structure (SMILES),cell number change [%],AC50 [1],AC50 [2]
CCOC(=O)N1CCN(C(=O)c2c(N)no[n+]2[O-])CC1,147,"0.731 µM [rising, single point]","29.1 µM [rising, single point]"
CCOC(=O)C1(C(C)(C)CC)CC(CSc2nc3ccccc3[nH]2)OC1=O (configuration not stated),-22.4,–,"29.1 µM [falling, single point]"
CC(=O)Nc1ccc(C(=O)OCC(=O)NCc2cccs2)cc1,-0.933,"0.00651 µM [falling, full curve, poor fit]","0.00731 µM [falling, full curve, poor fit]"
Cn1cc(Cl)c(-c2n[nH]c(=S)n2-c2ccccc2)n1,0.804,–,"3.66 µM [rising, single point]"
Cn1nc(C(=O)Nc2ccc(S(=O)(=O)N3CCCC3)cc2)ccc1=O,8.64,–,"6.51 µM [rising, single point]"
COc1ccc(-c2cn(-c3ccc(C)cc3C)c(=O)[nH]2)cc1OC,-22.6,–,–
COC(=O)c1ccc(C(=O)Nc2cc(Cl)ccc2Cl)cc1NC(=O)c1ccc(N(C)C)cc1,7.5,–,–
CCc1ccc(N2CC(C(=O)Nc3cc(C)on3)CC2=O)cc1 (configuration not stated),20.1,–,"0.731 µM [rising, full curve, poor fit]"
CC1=C(C#N)C(C(F)(F)F)(C(F)(F)F)N=C(c2ccco2)N1,6.68,–,"5.8 µM [rising, full curve]"
COC(=O)CCC(=O)OC1(C)C(=O)C2=CN(CCN3CCOCC3)C(c3ccc(OC)cc3)=CC2=C(Br)C1=O (configuration not stated),10.2,–,"3.66 µM [rising, single point]"
Cc1ccc(C(=O)NNC(=O)c2cccc(S(=O)(=O)N3CCN(c4ccccc4)CC3)c2)cc1,-18.2,–,"29.1 µM [falling, single point]"
O=C1C=C(c2ccc(CO)cc2)C[C@@H](c2ccc3c(c2)OCO3)C1,-19.2,–,–
COc1ccc(NC(=O)CSCC(=O)Oc2c(OC)cccc2OC)cc1,13.5,–,–
C=CCn1c(C(CC(C)C)CC(C)O)n[nH]c1=S (configuration not stated),95.9,"16.4 µM [rising, single point]","29.1 µM [rising, single point]"
Cc1n[nH]c(=S)n1/N=C/c1ccccc1OCc1ccc(Cl)cc1Cl,-66.1,"16.4 µM [falling, partial curve]","14.6 µM [falling, single point]"
COc1ccccc1C(=O)Nc1nnc(S(=O)(=O)N2CCCCC2)s1,0.597,–,"0.58 µM [falling, single point]"
O=C(NCC1CCCO1)c1cccc(N2C(=O)C3C4C=CC(C4)C3C2=O)c1 (configuration not stated),23.9,"0.651 µM [falling, single point]","0.651 µM [falling, single point]"
COc1cc2oc(=O)c3c(c2cc1OCC(=O)c1c(C)n(C)c2ccccc12)CCCC3,–,"1.46 µM [rising, partial curve]","1.64 µM [rising, full curve]"
FC(F)Oc1ccc(-c2csc(=Nc3cccnc3)n2CC2CCCO2)cc1 (configuration not stated),18.5,"0.0517 µM [rising, full curve, poor fit]","18.4 µM [falling, single point]"

# Single records, from the list above:
# CCc1ccc(N2CC(C(=O)Nc3cc(C)on3)CC2=O)cc1 (configuration not stated) is entered as cell number change [%]: 20.1; AC50 [2]: 0.731 µM [rising, full curve, poor fit]
# Cn1cc(Cl)c(-c2n[nH]c(=S)n2-c2ccccc2)n1 is entered as cell number change [%]: 0.804; AC50 [2]: 3.66 µM [rising, single point]
# FC(F)Oc1ccc(-c2csc(=Nc3cccnc3)n2CC2CCCO2)cc1 (configuration not stated) is entered as cell number change [%]: 18.5; AC50 [1]: 0.0517 µM [rising, full curve, poor fit]; AC50 [2]: 18.4 µM [falling, single point]
# CCOC(=O)N1CCN(C(=O)c2c(N)no[n+]2[O-])CC1 is entered as cell number change [%]: 147; AC50 [1]: 0.731 µM [rising, single point]; AC50 [2]: 29.1 µM [rising, single point]

# (listing goes on)

Structure (SMILES),cell number change [%],AC50 [1],AC50 [2]
COc1ccc(N2CC(C(=O)Nc3ccccc3C(=O)NCc3ccco3)CC2=O)cc1 (configuration not stated),–,–,"0.13 µM [rising, full curve, poor fit]"
Cc1ccc[n+](CC(=O)c2ccccc2)c1,29.4,–,"5.8 µM [rising, partial curve, poor fit]"
CCCSc1nc(C)nc2c1c(=O)n(C)c(=O)n2C,55.5,"20.6 µM [rising, single point]","6.51 µM [rising, single point]"
Cc1c(OCC(=O)NCCCN2CCOCC2)ccc2c3c(c(=O)oc12)CCCC3,14.1,"0.0103 µM [rising, full curve, poor fit]","6.51 µM [rising, single point]"
Cc1ccn(C(CC(=O)c2ccc(Br)cc2)C(=O)O)n1 (configuration not stated),-33.1,"8.2 µM [falling, partial curve]","18.4 µM [falling, single point]"
CC(=O)c1ccc(N2CCN(C(=O)C3CCN(C(=O)Nc4ccccc4)CC3)CC2)cc1,-13.5,"0.731 µM [falling, single point]",–
O=C(NCc1ccccc1F)c1cc(=O)[nH]c2ccccc12,13.9,–,–
CN1CCc2c(sc(NC(=O)C3CCCCC3)c2C(N)=O)C1,20.2,"6.51 µM [rising, partial curve, poor fit]","6.51 µM [rising, single point]"
COc1ccccc1NC(=O)CSc1ncc(CO)n1Cc1ccc(F)cc1,5.38,–,"10.3 µM [rising, partial curve]"
CCn1cc(C(=O)Nc2ncccc2O)c(=O)c2cc(F)c(N3CCN(C(=O)c4ccco4)CC3)cc21,-24.1,"0.411 µM [falling, full curve, poor fit]","0.092 µM [falling, full curve, poor fit]"
COc1ccc(/C=C/C2=Nc3ccccc3NC(C)(C)C2)cc1OC,4.11,–,–
CC(C)(C)c1ccc(C(=O)NC(=S)NNC(=O)COc2ccccc2)cc1,-16.1,–,–
Cc1occc1C(=O)NC(C)C(C)(C)C (configuration not stated),-1.72,–,"2.06 µM [falling, full curve]"
O=C(CCCCl)Nc1nc(-c2ccc3c(c2)OCCO3)cs1,–,"6.51 µM [rising, single point]","6.51 µM [rising, single point]"
CCC(Sc1nc(C)cc(=O)[nH]1)C(=O)Nc1nnc(C)s1 (configuration not stated),-33.4,"5.17 µM [falling, full curve, poor fit]","0.651 µM [falling, partial curve, poor fit]"
CCOCCCn1c(SCc2nc3ccccc3s2)nc2ccccc2c1=O,–,–,"0.259 µM [falling, partial curve, poor fit]"
O=C(Cc1ccc(F)cc1)Nc1nc(-c2ccc(F)cc2)cs1,54.8,"29.1 µM [rising, single point]",–
O=C(COc1ccc(Cl)cc1)NCc1ccccc1,16.8,–,"29.1 µM [rising, single point]"
COc1ccc(NC(=O)c2cc3ccccc3[nH]2)cc1,-19.8,–,–

Structure (SMILES),cell number change [%],AC50 [1],AC50 [2]
NNC(=O)Cn1c(-c2nonc2N)nc2ccccc21,43.4,"23.1 µM [rising, single point]","23.1 µM [rising, single point]"
O=C(c1ccc2c(=O)n3c(nc2c1)CCCCC3)N1CCN(c2ccccc2)CC1,31.4,"9.2 µM [rising, partial curve]","6.51 µM [rising, partial curve]"
CN(c1ccccc1)S(=O)(=O)c1ccc(NC(=O)C2CC2)cc1,-6.93,–,"29.1 µM [falling, single point]"
CN(C)C(=O)c1c(NC(=O)c2ccccc2)sc2c1CCC2,0.549,–,"29.1 µM [falling, single point]"
Nc1ccn(CC(=O)NCc2ccccc2)c(=O)n1,-25.2,–,"14.6 µM [falling, single point]"
COc1ccc(Cl)cc1NC(=O)CN1CCC(n2nnc3cc(F)ccc32)CC1,-0.394,"6.51 µM [rising, single point]","0.58 µM [rising, partial curve]"
CNC(=O)c1c(C)noc1C,1.36,–,"0.731 µM [falling, full curve]"
COc1ccc(N(CC(O)CN2CCCCC2)S(=O)(=O)c2ccc(C)cc2)cc1 (configuration not stated),-31.3,"3.26 µM [falling, partial curve]","3.66 µM [falling, full curve]"
COC(=O)c1ccc(N2CCN(C)CC2)c(NC(=O)COc2ccccc2)c1,3.95,"4.61 µM [rising, partial curve, poor fit]",–
COc1ccccc1-c1nnc2n1N=C(c1ccc(O)c(O)c1)CS2,3.71,–,–
Cc1nnc(Nc2ccc(C(=O)N3CCOCC3)cc2)c2ccccc12,12.7,–,"0.731 µM [rising, full curve, poor fit]"
O=C(Cc1ccccc1)NN1C(=O)/C(=C/c2ccc(C(=O)O)cc2)SC1=S,4.89,–,"3.26 µM [falling, full curve]"
COc1ccc(C(=O)CNc2ccccc2Br)cc1,34.2,"29.1 µM [rising, single point]","0.58 µM [rising, single point]"
O=C(N/N=C/c1c(F)c(F)c(F)c(F)c1F)c1ccc(Cn2cc(Br)cn2)o1,-59.1,"14.6 µM [falling, partial curve]","13 µM [falling, partial curve]"
CC(=O)C1=C(c2cccc([N+](=O)[O-])c2)N(C(C)=O)n2c(C)nnc2S1,-49,"20.6 µM [falling, single point]","16.4 µM [falling, single point]"
CC(C)N(CCNCc1nnc(-c2ccccc2)o1)C(C)C,-45.9,"0.366 µM [falling, full curve, poor fit]","0.058 µM [falling, full curve]"
O=C(NC12CC3CC(CC(C3)C1)C2)c1ccco1,-26.2,–,"10.3 µM [falling, partial curve]"
Cc1noc(C)c1CSc1nnc(-c2ccccc2)n1N,-34.1,"18.4 µM [falling, single point]","29.1 µM [rising, single point]"
